These results are taken from US8178077B2, “Drug development target protein and target gene, and method of screening” (Reverse Proteomics Research Institute Co., Ltd., priority 2004, dated 2012).

The target in this assay is T1, FLJ39196 clone-derived protein (human neurocalcin δ) (Homo sapiens, UniProt P61601).
T1 construct: A human full-length cDNA clone was expressed as a protein with an N-terminal His tag; His tag (N); made in house; host or cells: Escherichia coli BL21star(DE3)pLysS (pDEST17 Gateway expression plasmid)
Nature of the assay: SEC/MS interaction analysis (size exclusion spin column and mass analysis) with FLJ39196 clone-derived protein. The format is binding. The text has this: To analyze the interactions between commonly used drugs and proteins expressed from human full-length cDNA clones while keeping both the proteins and the compounds in non-modified, non-immobilized state, size exclusion chromatography (SEC) and mass analysis were used in combination (FIGS. 1, 2). The specific procedures are shown below.
The compound-protein mixture prepared in step 1 was subjected to chromatography using an SEC column, the compound and the protein were separated by SEC, and the compound that interacted with the bound compound or protein contained in the protein fraction was analyzed using a mass analyzer.
Protein concentrations were measured using BCA Protein Assay (PIERCE), in consideration of the purity calculated by SDS-PAGE.
Mass analysis was performed using LCQ DECA XP (Thermoelectron) or Q-TOFmicro (Micromass), equipped with an ESI probe. The LC pump used was Agilent 1100 (Yokogawa Analytical Systems), and the autosampler used was HTC-PAL (CTC Analytics) equipped with a cooling stacker.
In the SEC method using 384-well spin columns, Unifilter 100 (Whatman), packed with 10 μL (dry volume) of Bio-Gel P6 (BIO-RAD) and swollen with milliQ water, was used as the SEC column. 13.3 μL of a protein-free reference standard or a 25 μM protein standard and 0.7 μL of a multiplied liquid comprising 25 μM of each pharmaceutical compound (5% DMSO aqueous solution) were mixed; 9 μL of this mixture was aliquoted into the SEC spin columns. The SEC spin column was mounted on an acetonitrile-aliquoted 384-well U-bottom plate and centrifuged; the SEC spin column filtrate, which is a protein fraction, was retrieved in 50% acetonitrile. The protein precipitate produced by the acetonitrile was removed via centrifugation and filtration for deproteinization; the resulting filtrate was concentrated by centrifugation and re-dissolved in 10 μL of 50% methanol to obtain a mass analysis sample. The mobile phase supplied to the mass analyzer was 0.1% formic acid/50% methanol solution in the positive ion mode, and 0.1% ammonia/50% methanol solution in the negative ion mode; these mobile phases were used at a flow rate of 40 μL/min. 2-μL of mass analysis samples were injected using an autosampler at 2-minute intervals; the mass spectral intensity of the compound was measured to obtain the spectral intensity of the pharmaceutical compound contained in the SEC spin column filtrate (protein fraction eluted from SEC).

Regarding `CC(C)c1c(C(=O)Nc2ccccc2)c(-c2ccccc2)c(-c2ccc(F)cc2)n1CC[C@@H](O)C[C@@H](O)CC(=O)O` [atorvastatin], for the setting “intensity increased depending on the doses of both compound and protein”, the “interaction between the protein and the compound (judgement from spectrum intensity)” value is given as “dose-dependent interaction”. In addition, the “spectral intensity of the compound in the SEC spin column filtrate (protein fraction)” value by setting is: (protein 0 μM (protein-free reference), compound 12.5 μM) 31597; (protein 0 μM (protein-free reference), compound 25 μM) 68345; (protein 0 μM (protein-free reference), compound 62.5 μM) 604452; (protein 5 μM, compound 12.5 μM) 247204; (protein 5 μM, compound 25 μM) 110996; (protein 5 μM, compound 62.5 μM) 2703426. In addition, the “spectral intensity of the compound in the SEC spin column filtrate (protein fraction)” value came to 569000 (protein 10 μM, compound 12.5 μM); 597628 (protein 10 μM, compound 25 μM); 3448280 (protein 10 μM, compound 62.5 μM); 1285142 (protein 25 μM, compound 12.5 μM); 2719479 (protein 25 μM, compound 25 μM); 7108230 (protein 25 μM, compound 62.5 μM).
